Data as given in publication PMC7819943, “Rice protein-binding microarrays: a tool to detect cis-acting elements near promoter regions in rice”.
This is one part of the list.

Target: T1, OsSMF1 (Oryza sativa, UniProt Q6ZLB0 1-436)
T1 sequence: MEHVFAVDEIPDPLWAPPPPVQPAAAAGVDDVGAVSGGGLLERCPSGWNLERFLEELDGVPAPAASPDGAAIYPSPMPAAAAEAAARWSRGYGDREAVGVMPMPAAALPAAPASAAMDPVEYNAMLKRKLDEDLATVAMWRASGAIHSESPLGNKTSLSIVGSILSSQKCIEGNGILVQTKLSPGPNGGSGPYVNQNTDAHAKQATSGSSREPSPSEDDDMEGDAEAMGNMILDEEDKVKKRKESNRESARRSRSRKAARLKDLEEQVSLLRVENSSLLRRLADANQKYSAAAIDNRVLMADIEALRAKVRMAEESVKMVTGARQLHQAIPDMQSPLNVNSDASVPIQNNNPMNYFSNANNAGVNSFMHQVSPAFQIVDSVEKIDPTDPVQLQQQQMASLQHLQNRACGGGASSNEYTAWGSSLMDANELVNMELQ
Assay: protein-binding microarray (RPBM); PBS, 2% BSA, 51.3 ng/ul salmon testes DNA, 50 uM zinc acetate, 200 nM TF, 25 C, 1 h; high values mean tight binding
Conditions: protein: recombinant; tags: N-terminal polyhistidine and DsRed monomer fusion (pET32a); chain copies: 2; label: CyDye5-dUTP incorporated in the synthesized complementary strand; 3' TTTTT single-stranded linker to array surface; dsDNA, one strand shown
Method in brief: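 Per-feature fluorescence intensity (arbitrary units), read on an Axon 4000B scanner, is the binding signal. Transcription factors carrying an N-terminal polyhistidine tag and DsRed fusion were expressed in E. coli BL21-CodonPlus and purified on Ni–NTA. A custom Agilent array, made double-stranded by primer extension with Cy5-dUTP and blocked with 2% BSA, was incubated with 200 nM protein in PBS, 2% BSA, salmon testes DNA and 50 µM zinc acetate at 25 °C for 1 h and then washed.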

Row | Sequence | binding signal
1 | ATAGCTAGCTGTGAGCAACTGACTGAACATTTATCAAATGCGGAGTCACCTAGTGCAG | 3420 fluorescence intensity (a.u.)
2 | TTGAGGTTTGTTCATGGTTGTCTATTTTCCAGTATTAGCTCGGAGTCACCTAGTGCAG | 3300 fluorescence intensity (a.u.)
3 | GAGCGCGGAAGCCGGCGGCGGCCGTACGTGTTCGGCCGGCCGGAGTCACCTAGTGCAG | 3410 fluorescence intensity (a.u.)
4 | CCTCCGTGGTATTCAGACTGAGAGTAAGGAACCGCATATTCGGAGTCACCTAGTGCAG | 3980 fluorescence intensity (a.u.)
5 | ATAGCCCAAAAGTGACCGAAAGGAAAGCTGACAAGGACCACGGAGTCACCTAGTGCAG | 4800 fluorescence intensity (a.u.)
6 | TCCAAGGTTCACAAAATATAGAGGCCAACACATGCATATTCGGAGTCACCTAGTGCAG | 3560 fluorescence intensity (a.u.)
7 | TACTATTATTCATAAGGTCATAGTCATTGCCTGCATAGTGCGGAGTCACCTAGTGCAG | 3550 fluorescence intensity (a.u.)
8 | GAGTATTATATAGTTTCGTCATGATAGTCTTATACACGCACGGAGTCACCTAGTGCAG | 16400 fluorescence intensity (a.u.)
9 | AATCCTAGTTTACTGGCAATTGGCAGTTTGAGGACGTCAGCGGAGTCACCTAGTGCAG | 4420 fluorescence intensity (a.u.)
10 | GGCTTCGCATCGCTCCTCCTCGTCTGACTTCGCGTCACTCCGGAGTCACCTAGTGCAG | 5140 fluorescence intensity (a.u.)
11 | TTATAGATGGCGATGGGACCGATCATCAATCCCCATGGTGCGGAGTCACCTAGTGCAG | 3150 fluorescence intensity (a.u.)
12 | GTTAGTCCTGATAAGCAGGGGATGCTGACACGCAGGGACTCGGAGTCACCTAGTGCAG | 4160 fluorescence intensity (a.u.)
13 | ATCATTCGTTAGGTCGTAGTCGGGTTGGTAGGTACTTGGCCGGAGTCACCTAGTGCAG | 3280 fluorescence intensity (a.u.)
14 | AGATATACACACAGTGCATGCAAAAGAGCATGATTAGCATCGGAGTCACCTAGTGCAG | 3340 fluorescence intensity (a.u.)
15 | GCAGCAGGTTCAAAGCTGCTGATGATGCTATTTATGTTTCCGGAGTCACCTAGTGCAG | 3520 fluorescence intensity (a.u.)
16 | CGTGACCGGCGTAGGTGTTCCCCTCCCCTGGCTACGTCTGCGGAGTCACCTAGTGCAG | 3520 fluorescence intensity (a.u.)
17 | GAACCGTTAGCGTACGCTACACCCGGCCCCACGCGTCAGTCGGAGTCACCTAGTGCAG | 5090 fluorescence intensity (a.u.)
18 | CGTGTACCACCGTGCGACGCGTGGCTTGCTTCTACCACGCCGGAGTCACCTAGTGCAG | 4700 fluorescence intensity (a.u.)
19 | TGTGATACTCTGTCTCCCTGTGATACCAGCACTATTTCCTCGGAGTCACCTAGTGCAG | 4260 fluorescence intensity (a.u.)
20 | GGAAGGGAGAGAAGAGGGGAAAGAGAGAGGGTGACGTGGACGGAGTCACCTAGTGCAG | 19300 fluorescence intensity (a.u.)
21 | CTTGTTATGTTCCGTTTCTTCCAGCTTTGGTGCTCTCTCACGGAGTCACCTAGTGCAG | 30500 fluorescence intensity (a.u.)
22 | GTAACACTTTCAATATGTAGTTTTGTGATAATTTAGTTAACGGAGTCACCTAGTGCAG | 3880 fluorescence intensity (a.u.)
23 | GGCAGATGCCAGGTCAGCTCCAACATTTTCCTGTGCTTTGCGGAGTCACCTAGTGCAG | 15900 fluorescence intensity (a.u.)
24 | GGCGATGCGGAAAGCTACGTCCCTCTGACGTAGAATTTAACGGAGTCACCTAGTGCAG | 4650 fluorescence intensity (a.u.)
25 | CGCGCTGTCTGCACCGCCGCCGCCGCCGCCGGCGGAACCCCGGAGTCACCTAGTGCAG | 25200 fluorescence intensity (a.u.)
26 | TCCGCTGTTGATTCATCAGCCGTGGAATGCCACGACGCAACGGAGTCACCTAGTGCAG | 6330 fluorescence intensity (a.u.)
27 | TCTGCCACAGCTCCCATGTGCGCGCATCGCCATGGCCACGCGGAGTCACCTAGTGCAG | 7410 fluorescence intensity (a.u.)

Row | Sequence | binding signal
28 | ACCACCACCACCACCATCGCACTCCCAACTCCCAAGCCGCCGGAGTCACCTAGTGCAG | 3760 fluorescence intensity (a.u.)
29 | TCATATATAGTATTATAATTAGCTTATCTTGTCGTGTGTTCGGAGTCACCTAGTGCAG | 3890 fluorescence intensity (a.u.)
30 | GTCAGTGTGGCCACGTCAGCATCCTCTCTTTTCCTCTCTTCGGAGTCACCTAGTGCAG | 40800 fluorescence intensity (a.u.)
31 | TTCCCTCTGGGCCCCACCCGTCAGCGACTCCACGGCACGCCGGAGTCACCTAGTGCAG | 3510 fluorescence intensity (a.u.)
32 | TCCCACTCCACCTTTGCCTCGTCGTCTCAATCGCCTTCGTCGGAGTCACCTAGTGCAG | 4030 fluorescence intensity (a.u.)
33 | ATACGAGCCAAAGACCGTTGACAAGCTAGTCAACAGTCATCGGAGTCACCTAGTGCAG | 3270 fluorescence intensity (a.u.)
34 | TGTTTAGTGTGTAATACAACGTGGCAATCAAGCTCAAGATCGGAGTCACCTAGTGCAG | 3410 fluorescence intensity (a.u.)
35 | TGTCACCATATTGCGCCACGTCATCAAAGTAATAAGGGCCCGGAGTCACCTAGTGCAG | 13800 fluorescence intensity (a.u.)
36 | TATTCTTATCGCAGCAAAATCTAGTCAATTGTTATGGCATCGGAGTCACCTAGTGCAG | 3160 fluorescence intensity (a.u.)
37 | TGAATCCACAGCCACGCCACGCGGCCCATGCCTACGCCTCCGGAGTCACCTAGTGCAG | 4000 fluorescence intensity (a.u.)
38 | CCGCGCCACCTCATGCCGTGACGTGCAGATCCCCTCCTCCCGGAGTCACCTAGTGCAG | 7890 fluorescence intensity (a.u.)
39 | CACCACCACCACCGCTGCTGACTTCATCGCATCAGAACCACGGAGTCACCTAGTGCAG | 3320 fluorescence intensity (a.u.)
40 | CGGCCGCCGCCGGGGTGGCACAAGCTGAACTTCGACGGATCGGAGTCACCTAGTGCAG | 3270 fluorescence intensity (a.u.)
41 | TTATTGTGTGAATTTGGCCCACGTCGGCGGCGGCGGCGGACGGAGTCACCTAGTGCAG | 6550 fluorescence intensity (a.u.)
42 | GTAAATTACGTGTTCTTTTCACAGTTAAATTTGCTATTTTCGGAGTCACCTAGTGCAG | 3640 fluorescence intensity (a.u.)
43 | CTTCTAGAGGTTTCTAGAAGATACTGGAGTTGGAGAGGTGCGGAGTCACCTAGTGCAG | 13000 fluorescence intensity (a.u.)
44 | CAAATCCACACTCAAGAATTAGCGTAGATTACTATGGAATCGGAGTCACCTAGTGCAG | 5750 fluorescence intensity (a.u.)
45 | GGGCTACAGGTTGAGCACGTGGGCTGGCACGGAACAACCCCGGAGTCACCTAGTGCAG | 3570 fluorescence intensity (a.u.)
46 | TCGACCCGTGAGGTGGCTTTCGTTGTCAGCGTCGTCAACGCGGAGTCACCTAGTGCAG | 4030 fluorescence intensity (a.u.)
47 | CTCATACGCTAACACGTAATGAAATACCATTGGGTTGTTTCGGAGTCACCTAGTGCAG | 4690 fluorescence intensity (a.u.)
48 | ATTTACTGCCTATTCGTGAGTTGGTCCTCCTGACTCTGACCGGAGTCACCTAGTGCAG | 3750 fluorescence intensity (a.u.)
49 | CTTCGCCGCCCTCGTTTGCCCGCCGCCACGCGTCGCTGTACGGAGTCACCTAGTGCAG | 5240 fluorescence intensity (a.u.)
50 | CGCCGAAGAGATTAATTCCACCAAAACCATATGTGTACGACGGAGTCACCTAGTGCAG | 19200 fluorescence intensity (a.u.)
51 | GTTACGACAACTTTAACACCGTCAACCTGAGCTAACAGATCGGAGTCACCTAGTGCAG | 32900 fluorescence intensity (a.u.)
52 | CCGCCACGTTGTTCCGTGTCACCCTAGAAAATAGCCGCACCGGAGTCACCTAGTGCAG | 6140 fluorescence intensity (a.u.)
53 | TCGCTCGCCGCCGCGTCGCGTCGCGCCGCCACCTCACGCCCGGAGTCACCTAGTGCAG | 4870 fluorescence intensity (a.u.)
54 | GGCAACGCCAGCTATAGACCATAGATGGCTCTTGACTAGGCGGAGTCACCTAGTGCAG | 3600 fluorescence intensity (a.u.)

Looked up above.
Value for TTCCCTCTGGGCCCCACCCGTCAGCGACTCCACGGCACGCCGGAGTCACCTAGTGCAG under binding signal: 3510 fluorescence intensity (a.u.)
Value for GTAAATTACGTGTTCTTTTCACAGTTAAATTTGCTATTTTCGGAGTCACCTAGTGCAG under binding signal: 3640 fluorescence intensity (a.u.)
